# The other results are listed elsewhere or left out.
# Target: T1, OsSMF1 (Oryza sativa, UniProt Q6ZLB0 1-436)
# T1 sequence: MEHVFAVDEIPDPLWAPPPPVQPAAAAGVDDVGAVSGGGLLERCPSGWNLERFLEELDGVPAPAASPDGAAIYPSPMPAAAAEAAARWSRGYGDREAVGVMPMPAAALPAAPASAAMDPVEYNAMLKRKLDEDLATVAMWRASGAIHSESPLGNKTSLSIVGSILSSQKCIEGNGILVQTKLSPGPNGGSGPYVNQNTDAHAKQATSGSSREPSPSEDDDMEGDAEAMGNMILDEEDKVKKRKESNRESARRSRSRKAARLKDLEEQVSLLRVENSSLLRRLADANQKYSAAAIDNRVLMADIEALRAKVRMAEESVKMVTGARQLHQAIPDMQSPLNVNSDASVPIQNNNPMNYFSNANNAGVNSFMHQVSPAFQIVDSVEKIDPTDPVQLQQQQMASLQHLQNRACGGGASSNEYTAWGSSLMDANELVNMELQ
# Experiment: protein-binding microarray (RPBM); PBS, 2% BSA, 51.3 ng/ul salmon testes DNA, 50 uM zinc acetate, 200 nM TF, 25 C, 1 h; high values mean tight binding
# Settings: protein: recombinant; tags: N-terminal polyhistidine and DsRed monomer fusion (pET32a); chain copies: 2; label: CyDye5-dUTP incorporated in the synthesized complementary strand; 3' TTTTT single-stranded linker to array surface; dsDNA, one strand shown
# Procedure, shortened: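 The binding signal is fluorescence intensity per feature, in arbitrary units, read on an Axon 4000B scanner. Polyhistidine- and DsRed-tagged transcription factors (N-terminal fusions) from E. coli BL21-CodonPlus were purified on Ni–NTA and applied at 200 nM for 1 h at 25 °C to a double-stranded, BSA-blocked custom Agilent array in buffer with 50 µM zinc acetate.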
row,Sequence,binding signal
1,ATGCGCCGCCGAGGAGGGGAAGCCCTAGGAAGGAAGAGAGCGGAGTCACCTAGTGCAG,31500 fluorescence intensity (a.u.)
2,CGATCTCTACTTCTAAACGACCCTATATATGTGGCTATATCGGAGTCACCTAGTGCAG,3550 fluorescence intensity (a.u.)
3,CTCTATACCAATAAAGACAACGTGGCAACTATTTCAAGGACGGAGTCACCTAGTGCAG,4740 fluorescence intensity (a.u.)
4,ACAGCCAATCAGAATAGGACACATCACCCAGTCTAAAACTCGGAGTCACCTAGTGCAG,3480 fluorescence intensity (a.u.)
5,TTACCTTTCTCAAGCTAGACACCATAATCTCTGAATTTAGCGGAGTCACCTAGTGCAG,14700 fluorescence intensity (a.u.)
6,TGATATGAAAACTCGTGCCAACTCAGCAAAATATTGTAATCGGAGTCACCTAGTGCAG,6920 fluorescence intensity (a.u.)
7,GCTTTTCCTGTCAATGTTTGTTTGTGTAATGTTGTTATACCGGAGTCACCTAGTGCAG,3630 fluorescence intensity (a.u.)
8,AATAGGTATCGACGTGCCTTACAGGTGCACGCTGACTAGTCGGAGTCACCTAGTGCAG,3540 fluorescence intensity (a.u.)
9,TCTCGAGGCAAAGCCCAGTCATCGCGGCGGTCACTGACGTCGGAGTCACCTAGTGCAG,4220 fluorescence intensity (a.u.)
10,TATGGCCGTGCATGCTTCGCCTTGCTTGCCCACGTCACCCCGGAGTCACCTAGTGCAG,22800 fluorescence intensity (a.u.)
11,ATCCGCCACTTCGCATGCACGCCATCCTCGCCTCGCCGAGCGGAGTCACCTAGTGCAG,3140 fluorescence intensity (a.u.)
12,CTGCGCCATCCACGCCAAGCGCGTCACCATCATGCCCAAGCGGAGTCACCTAGTGCAG,6140 fluorescence intensity (a.u.)
13,ACTACTCAGTATGTCGCGGTGCCACCTCACACGGTGACACCGGAGTCACCTAGTGCAG,8720 fluorescence intensity (a.u.)
14,TTGGGCCACGCACGGCGAAACTAGTATATGATGCCAATGCCGGAGTCACCTAGTGCAG,4610 fluorescence intensity (a.u.)
15,AAGGATGGGTACGAGGAGGTAGTAAACGTGGACATTTCATCGGAGTCACCTAGTGCAG,4250 fluorescence intensity (a.u.)
16,TAAGATTTGGATCTGTCACTCAGCTGCTGCCATCAGATGGCGGAGTCACCTAGTGCAG,5230 fluorescence intensity (a.u.)
17,TTTCTCCCCATCGAGATTCGCGTGGCCTTGTGGTCACCGCCGGAGTCACCTAGTGCAG,3400 fluorescence intensity (a.u.)
18,ACAAACAATGTATACGTGTACTCGAGTGGGCGTACCTGGACGGAGTCACCTAGTGCAG,5600 fluorescence intensity (a.u.)
19,CTTCATGTAATCATGTCATGCCTTCAAATGCAGCTGGGCACGGAGTCACCTAGTGCAG,4030 fluorescence intensity (a.u.)
20,CCACCAGCTCGTGGCCGCTGCCACGTTGAACCCATAGCAACGGAGTCACCTAGTGCAG,7080 fluorescence intensity (a.u.)
21,TACTACAAACCACATCACCCCTCCTTCTAAGCAGAACATGCGGAGTCACCTAGTGCAG,4030 fluorescence intensity (a.u.)
22,CCGTGGGTATTTCCGTCATTTCGCGCCTAAATCTCACTCCCGGAGTCACCTAGTGCAG,3460 fluorescence intensity (a.u.)
23,TAGCAAATTTTGCCATCAGAATATGACACATCACCGAGACCGGAGTCACCTAGTGCAG,10700 fluorescence intensity (a.u.)
24,CTGTTGATAGAGTTTAGGTGTATCCTCAACCGTGTACACACGGAGTCACCTAGTGCAG,3330 fluorescence intensity (a.u.)
25,GCAAAATAGAGCGGTCTATTAGCACATGATTAATTAAATACGGAGTCACCTAGTGCAG,24400 fluorescence intensity (a.u.)
26,TATCGACCCCTTCAACTATTAAAACCGTGTAAAATTGACACGGAGTCACCTAGTGCAG,3230 fluorescence intensity (a.u.)
27,TATCAGCGCCACCAGAAAACGAAAAGGACACGTGTACTACCGGAGTCACCTAGTGCAG,10400 fluorescence intensity (a.u.)

row,Sequence,binding signal
1,TTTCACTGACACATATGGTTCGAGTCTCACAGTGTACTCTCGGAGTCACCTAGTGCAG,4170 fluorescence intensity (a.u.)
2,GGCATGCCACATCAACGCCACGTAGGATTCTAAAGGGGTTCGGAGTCACCTAGTGCAG,18000 fluorescence intensity (a.u.)
3,GAAGTCCAGTTTCCGTATAGGGCATGGTATGTGGTGGGTCCGGAGTCACCTAGTGCAG,3170 fluorescence intensity (a.u.)
4,CGCCGCGGCGTCGGAGCCGTACAGGTGGCTCCTCAGGGTGCGGAGTCACCTAGTGCAG,3220 fluorescence intensity (a.u.)
5,TGGTATATGTACATGCTTAAATAATGTGAAAATGACGTGGCGGAGTCACCTAGTGCAG,20800 fluorescence intensity (a.u.)
6,TTGATGTTAGCCTAGTCGACAACTCATCATCTAATTTGATCGGAGTCACCTAGTGCAG,5200 fluorescence intensity (a.u.)
7,TGGAAAAGGTTTGATTTTGTGTGGCATGCCTGCGCGGGCGCGGAGTCACCTAGTGCAG,3470 fluorescence intensity (a.u.)
8,CGGTATTGGATTGATCAATCATCGTCACCTCGTTTTGCTTCGGAGTCACCTAGTGCAG,4840 fluorescence intensity (a.u.)
9,CTTTGGTTTTATCTTCACTCCAGTCAATGACACCTCTACCCGGAGTCACCTAGTGCAG,3900 fluorescence intensity (a.u.)
10,GTACGTCGGAAGCAACGGCAGACATGACAGCATATGGCCTCGGAGTCACCTAGTGCAG,15900 fluorescence intensity (a.u.)
11,TCTTAGTGTGACAGGTCTCCCACTTCCACGTGAAAATTGCCGGAGTCACCTAGTGCAG,3240 fluorescence intensity (a.u.)
12,ACTTTGACCTGTTGTATCTCGCTAAGTCATCTCGTGGGGCCGGAGTCACCTAGTGCAG,3360 fluorescence intensity (a.u.)
13,TGGAAATTGACTCGTCACAAGCTGGACCAGACGACCGCTTCGGAGTCACCTAGTGCAG,3560 fluorescence intensity (a.u.)
14,GCTGGGGAAGCGTCCCTCTCTCCGCCGGCCGATGTGGATGCGGAGTCACCTAGTGCAG,3460 fluorescence intensity (a.u.)
15,GTGCTCTGCCTGACGAACTTTTGCACCATGTCATGACATTCGGAGTCACCTAGTGCAG,3310 fluorescence intensity (a.u.)
16,TATTAATTTGCACTGTCTCCTGATGTTTGGTTTAATTTGTCGGAGTCACCTAGTGCAG,3150 fluorescence intensity (a.u.)
17,ATCGGCTTTCACCCTTACACCGTTACACGTTGCACTGCACCGGAGTCACCTAGTGCAG,6970 fluorescence intensity (a.u.)
18,TAATAATACATGATAATTAATTAGCTACGTCCTTGTCAAACGGAGTCACCTAGTGCAG,5260 fluorescence intensity (a.u.)
19,TCCTCTCATCCTATTTTCTGTGTGCATTGTGTCTGTGACACGGAGTCACCTAGTGCAG,3190 fluorescence intensity (a.u.)
20,GTCTTCTTGGGCGTAGAGCCAGCTATCTATCAGCCACCGCCGGAGTCACCTAGTGCAG,3350 fluorescence intensity (a.u.)
21,CACCTGTCATACACACACAATGTCTTGGAGTCCGTGCTGCCGGAGTCACCTAGTGCAG,3320 fluorescence intensity (a.u.)
22,CCGATATGATGCAGCAGCTCCGACTCCACCTTAACACTAACGGAGTCACCTAGTGCAG,3570 fluorescence intensity (a.u.)
23,GATCACGAACTGGGCGCCCACGATCCAAGCCGGGTCGCGACGGAGTCACCTAGTGCAG,3210 fluorescence intensity (a.u.)
24,GAATGTATTAAAATCAGACGTTGTTTGATTAGTTATAGAACGGAGTCACCTAGTGCAG,30100 fluorescence intensity (a.u.)
25,CGACGACTCGTCTCCTTCCTCGTCATCTCCAAGTTCACCACGGAGTCACCTAGTGCAG,3730 fluorescence intensity (a.u.)
26,CAGTCTCAAATTATGGGGTGCCCTCTTTTCGAGGAAAATTCGGAGTCACCTAGTGCAG,3960 fluorescence intensity (a.u.)
27,TTCTTTGGGTTTGGGACACACTCATATACGCGTGTTCATGCGGAGTCACCTAGTGCAG,20400 fluorescence intensity (a.u.)

# Reference: article PMC7819943, “Rice protein-binding microarrays: a tool to detect cis-acting elements near promoter regions in rice”
